Reference: the supplement of paper PMC11438910
The list shows a part of the results. The signal is at background level for most entries.

Experiments:
Assay in all cases: fluorescence intensity of antibody binding to polysaccharide-coupled beads; higher = stronger binding
[1] = biological target: pneumococcal polysaccharide Pn23F
Protocol: (§1)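 Recombinant rhesus-murine chimeric IgG1 antibodies were tested against antigen-coupled MagPlex beads in a 96-plex Luminex direct immunoassay (dLIA). The beads carried pneumococcal capsular polysaccharides of 93 serotypes plus C-polysaccharides. Antibody was added at 0.1–12,500 ng/mL for 1 h, then PE anti-mouse IgG, and net MFI was read on a Bio-Plex 3D. Only the rhesus variable regions are printed; constant regions are murine IgG1/kappa/lambda, and the signal peptide is MGWSCIILFLVATATGVHS.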

[2] = biological target: pneumococcal polysaccharide Pn24A
Protocol: as §1

[3] = biological target: pneumococcal polysaccharide Pn24B
Protocol: as §1

[4] = biological target: pneumococcal polysaccharide Pn24F
Protocol: as §1

[5] = biological target: pneumococcal polysaccharide Pn25A
Protocol: as §1

[6] = biological target: pneumococcal polysaccharide Pn25F
Protocol: as §1

[7] = biological target: pneumococcal polysaccharide Pn27
Protocol: as §1

[8] = biological target: pneumococcal polysaccharide Pn28A
Protocol: as §1

[9] = biological target: pneumococcal polysaccharide Pn28F
Protocol: as §1

[10] = biological target: pneumococcal polysaccharide Pn29
Protocol: as §1

[11] = biological target: pneumococcal polysaccharide Pn3
Protocol: as §1

[12] = biological target: pneumococcal polysaccharide Pn31
Protocol: as §1

[13] = antibody concentration 2.8593 ng/mL
[14] = antibody concentration 15.2894 ng/mL
[15] = antibody concentration 81.7561 ng/mL
[16] = antibody concentration 437.17 ng/mL
[17] = antibody concentration 2337.65 ng/mL
[18] = antibody concentration 12500 ng/mL
[19] = antibody concentration 0.1 ng/mL
[20] = antibody concentration 0.534724 ng/mL

B1: 4-99.4 (protein)
chain 1: QVQLQESGPGLVKPSETLSLTCAVSGYSISSAYFWGWIRQPPGKGLEYIGYISGEGGKSYYNPSLMSRVTISKDTSKNQFSLKLNTVTAADTAVYYCARRAILVGFDLWGQGVLVTVSS
chain 2: QAAPTQPPSVSGSPGQSVTISCTGSNSDIGYYNAVSWYQQHPGKAPKLMIYEVSKRPSGVSDRLTGSKSGNTASLTISGLQAEDEADYYCSSYAGSNTYIFGTGTRLTVL
- fluorescence intensity [1, 13]: 19 MFI
- fluorescence intensity [1, 14]: 19.5 MFI
- fluorescence intensity [1, 15]: 18 MFI
- fluorescence intensity [1, 16]: 19.8 MFI
- fluorescence intensity [1, 17]: 20 MFI
- fluorescence intensity [1, 18]: 32.5 MFI
- fluorescence intensity [2, 19]: 16.5 MFI
- fluorescence intensity [2, 20]: 16 MFI
- fluorescence intensity [2, 13]: 17.5 MFI
- fluorescence intensity [2, 14]: 16 MFI
- fluorescence intensity [2, 15]: 17 MFI
- fluorescence intensity [2, 16]: 17 MFI
- fluorescence intensity [2, 17]: 17.5 MFI
- fluorescence intensity [2, 18]: 22 MFI
- fluorescence intensity [3, 19]: 19.5 MFI
- fluorescence intensity [3, 20]: 19 MFI
- fluorescence intensity [3, 13]: 19.2 MFI
- fluorescence intensity [3, 14]: 18.8 MFI
- fluorescence intensity [3, 15]: 20 MFI
- fluorescence intensity [3, 16]: 20 MFI
- fluorescence intensity [3, 17]: 23 MFI
- fluorescence intensity [3, 18]: 38.2 MFI
- fluorescence intensity [4, 19]: 19.8 MFI
- fluorescence intensity [4, 20]: 18 MFI
- fluorescence intensity [4, 13]: 17 MFI
- fluorescence intensity [4, 14]: 16 MFI
- fluorescence intensity [4, 15]: 15.8 MFI
- fluorescence intensity [4, 16]: 17.5 MFI
- fluorescence intensity [4, 17]: 24.5 MFI
- fluorescence intensity [4, 18]: 39.5 MFI
- fluorescence intensity [5, 19]: 23 MFI
- fluorescence intensity [5, 20]: 24 MFI
- fluorescence intensity [5, 13]: 23.5 MFI
- fluorescence intensity [5, 14]: 24 MFI
- fluorescence intensity [5, 15]: 26 MFI
- fluorescence intensity [5, 16]: 25.8 MFI
- fluorescence intensity [5, 17]: 26.5 MFI
- fluorescence intensity [5, 18]: 38.5 MFI
- fluorescence intensity [6, 19]: 30 MFI
- fluorescence intensity [6, 20]: 31.5 MFI
- fluorescence intensity [6, 13]: 30.5 MFI
- fluorescence intensity [6, 14]: 33.5 MFI
- fluorescence intensity [6, 15]: 31.5 MFI
- fluorescence intensity [6, 16]: 32.2 MFI
- fluorescence intensity [6, 17]: 30.5 MFI
- fluorescence intensity [6, 18]: 41 MFI
- fluorescence intensity [7, 19]: 18 MFI
- fluorescence intensity [7, 20]: 17.5 MFI
- fluorescence intensity [7, 13]: 18.5 MFI
- fluorescence intensity [7, 14]: 17.5 MFI
- fluorescence intensity [7, 15]: 16.5 MFI
- fluorescence intensity [7, 16]: 18.5 MFI
- fluorescence intensity [7, 17]: 22.8 MFI
- fluorescence intensity [7, 18]: 96 MFI
- fluorescence intensity [8, 19]: 26.5 MFI
- fluorescence intensity [8, 20]: 28 MFI
- fluorescence intensity [8, 13]: 27.8 MFI
- fluorescence intensity [8, 14]: 27 MFI
- fluorescence intensity [8, 15]: 27.5 MFI
- fluorescence intensity [8, 16]: 28 MFI
- fluorescence intensity [8, 17]: 28 MFI
- fluorescence intensity [8, 18]: 39 MFI
- fluorescence intensity [9, 19]: 30.8 MFI
- fluorescence intensity [9, 20]: 29.2 MFI
- fluorescence intensity [9, 13]: 30.8 MFI
- fluorescence intensity [9, 14]: 29.5 MFI
- fluorescence intensity [9, 15]: 29.5 MFI
- fluorescence intensity [9, 16]: 30.5 MFI
- fluorescence intensity [9, 17]: 31 MFI
- fluorescence intensity [9, 18]: 54.8 MFI
- fluorescence intensity [10, 19]: 15.5 MFI
- fluorescence intensity [10, 20]: 16 MFI
- fluorescence intensity [10, 13]: 16.2 MFI
- fluorescence intensity [10, 14]: 16 MFI
- fluorescence intensity [10, 15]: 17.2 MFI
- fluorescence intensity [10, 16]: 18 MFI
- fluorescence intensity [10, 17]: 21 MFI
- fluorescence intensity [10, 18]: 58.2 MFI
- fluorescence intensity [11, 19]: 16.5 MFI
- fluorescence intensity [11, 20]: 22 MFI
- fluorescence intensity [11, 13]: 52.5 MFI
- fluorescence intensity [11, 14]: 178 MFI
- fluorescence intensity [11, 15]: 478 MFI
- fluorescence intensity [11, 16]: 2170 MFI
- fluorescence intensity [11, 17]: 16300 MFI
- fluorescence intensity [11, 18]: 8180 MFI
- fluorescence intensity [12, 19]: 14.2 MFI
- fluorescence intensity [12, 20]: 14.5 MFI
- fluorescence intensity [12, 13]: 14.5 MFI
- fluorescence intensity [12, 14]: 14.5 MFI
